Experimental data as given in patent publication US20250250218A1, “Anti-Amyloidogenic Curcumin Analogues” (MCPHS University, priority 2024, published 2025).
For some of these results: At least one read-out could not be matched to a standard name with certainty. Some entries share one result that the patent states for a list of compounds.

The chains behind the UniProt entries cited, without tags or fusion partners. Residues count along the entry.
UniProt P05067, 672-713 limits assumed: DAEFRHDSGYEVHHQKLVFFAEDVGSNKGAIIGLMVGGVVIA

Tests used:
Aβ1-42 peptide = Aβ1-42 peptide (Homo sapiens, UniProt P05067); experiment: Thioflavin T (ThT) fluorescence assay of Aβ1-42 aggregation (SensoLyte kit); format: biochemical; conditions: Aβ1-42 35 μM, minimum of five concentrations
Experimental: All newly synthesized compounds were screened for their anti-amyloidogenic activity on Aβ1-42 peptides, using Phenol Red as the internal standard—all at 100 μM. […] To obtain the IC50 values (shown in FIGS. 4A-4D), all compounds were tested at a minimum of five different concentrations.
Samples of ThT (final concentration of 200 μM) and Aβ1-42 peptide (final concentration of 35 μM) were incubated at 37° C. in a black clear bottom 96-well plate. The ThT fluorescence intensity of each sample was immediately measured every 5 min for 120 min, with 440/485 nm excitation/emission filters and with 15 sec shaking between reads to facilitate aggregation. An inhibitor control containing Aβ1-42 and a supplied aggregation inhibitor (Phenol Red), at a final concentration of 100 μM. The positive control contained Aβ1-42 without an inhibitor. […] All the wells were brought to 100 μL as a final volume.

[1] = cited from earlier work

SMILES	IC50, inhibition of Aβ aggregation (anti-amyloidogenic activity) (Aβ1-42 peptide)	permeability across the blood brain barrier [1]
CN(C)c1ccc(C=CC=CC(=O)c2ccccc2)cc1 [Compound 1]	low μM	–
Cc1ccc(C(=O)C=CC=Cc2ccc(N(C)C)cc2)cc1 [Compound 2]	low μM	–
CN(C)c1ccc(C=CC=CC(=O)c2ccc(Cl)cc2)cc1 [Compound 3]	low μM	–
COc1cc(/C=C/C(=O)CC(=O)/C=C/c2ccc(O)c(OC)c2)ccc1O [curcumin]	–	low permeability
